In paper PMC2726291, “Sus1, Cdc31, and the Sac3 CID Region Form a Conserved Interaction Platform that Promotes Nuclear Pore Association and mRNA Export” (Molecular Cell, 2009):
These are yes or no findings as the source states them, for the method shown. In cells and extracts the contact can be indirect. A result given as binding can be weak or reduced; the word gives no strength. Where a sequence is shown, tags or fusion partners need not be part of it.

The chains behind the UniProt entries cited, without tags or fusion partners. Where a name states a change or a piece, a line headed by the entry shows the natural chain unless it says otherwise.
UniProt P46674: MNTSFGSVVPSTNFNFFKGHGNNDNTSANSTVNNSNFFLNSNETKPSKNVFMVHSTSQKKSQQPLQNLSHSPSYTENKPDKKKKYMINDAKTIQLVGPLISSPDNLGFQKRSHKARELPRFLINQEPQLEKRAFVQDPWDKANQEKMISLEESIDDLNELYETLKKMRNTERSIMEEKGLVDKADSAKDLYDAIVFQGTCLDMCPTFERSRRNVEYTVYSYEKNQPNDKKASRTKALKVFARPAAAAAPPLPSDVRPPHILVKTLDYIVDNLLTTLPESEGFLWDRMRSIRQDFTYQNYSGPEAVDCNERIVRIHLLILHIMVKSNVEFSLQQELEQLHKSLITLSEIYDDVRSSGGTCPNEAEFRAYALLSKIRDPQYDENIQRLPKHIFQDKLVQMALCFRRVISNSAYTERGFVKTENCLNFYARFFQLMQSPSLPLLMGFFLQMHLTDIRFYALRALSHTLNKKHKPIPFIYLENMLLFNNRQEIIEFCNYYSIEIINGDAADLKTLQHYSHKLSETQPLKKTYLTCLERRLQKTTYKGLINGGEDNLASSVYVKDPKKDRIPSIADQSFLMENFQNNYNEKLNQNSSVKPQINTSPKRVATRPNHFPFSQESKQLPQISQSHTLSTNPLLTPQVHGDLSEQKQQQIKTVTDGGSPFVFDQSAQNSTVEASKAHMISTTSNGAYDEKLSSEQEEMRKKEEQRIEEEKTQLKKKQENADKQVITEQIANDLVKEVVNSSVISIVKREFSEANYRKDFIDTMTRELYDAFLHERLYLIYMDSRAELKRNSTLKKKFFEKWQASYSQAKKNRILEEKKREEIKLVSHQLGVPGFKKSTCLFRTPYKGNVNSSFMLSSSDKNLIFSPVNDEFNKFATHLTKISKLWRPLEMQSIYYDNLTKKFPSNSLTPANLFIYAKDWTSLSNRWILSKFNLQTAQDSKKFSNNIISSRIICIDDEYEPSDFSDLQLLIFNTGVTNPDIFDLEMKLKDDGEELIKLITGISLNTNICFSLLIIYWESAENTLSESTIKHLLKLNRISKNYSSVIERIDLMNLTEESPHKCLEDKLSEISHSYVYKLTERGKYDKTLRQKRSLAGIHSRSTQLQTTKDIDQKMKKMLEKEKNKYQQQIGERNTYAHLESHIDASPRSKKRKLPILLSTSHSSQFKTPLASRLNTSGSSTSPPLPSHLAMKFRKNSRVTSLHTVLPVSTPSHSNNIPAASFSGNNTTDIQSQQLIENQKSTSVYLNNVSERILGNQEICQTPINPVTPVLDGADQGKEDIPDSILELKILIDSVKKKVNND

Target: Protein A-tagged Sac3ΔC (Δ795–813) (yeast) (UniProt P46674)
Experiment: co-IP; split-tag purification from sac3Δ THP1-GST SUS1-MYC yeast: Protein A-tagged Sac3 or mutants on IgG Sepharose, TEV cleavage, then GSH Sepharose (Thp1-GST), glutathione elution; Coomassie and western blot with anti-GST, anti-myc, anti-Cdc31

| Binder | binding |
| --- | --- |
| Sus1 (recombinant, untagged, full length) (natural protein, yeast, UniProt Q6WNK7 1-96, looked up, Sus1, yeast, full length; the model holds residues 6–95; also called Sus1A; Sus1B; source: E. coli BL21(DE3) CodonPlus RIL, untagged vector pOPT, purified as a complex with Sac3 fragment and Cdc31) MTMDTAQLKSQIQQYLVESGNYELISNELKARLLQEGWVDKVKDLTKSEMNINESTNFTQILSTVEPKALEMVSDSTRETVLKQIREFLEEIVDTQ | binds |
| Cdc31 (recombinant, untagged, full length) (natural protein, yeast, UniProt P06704 1-161, looked up, Cdc31, yeast, full length, cloned into pET30a and called untagged; the model holds residues 9–161; source: E. coli BL21(DE3) CodonPlus RIL, coexpressed with GST-Sac3 fragments, purified as a complex) MSKNRSSLQSGPLNSELLEEQKQEIYEAFSLFDMNNDGFLDYHELKVAMKALGFELPKREILDLIDEYDSEGRHLMKYDDFYIVMGEKILKRDPLDEIKRAFQLFDDDHTGKISIKNLRRVAKELGETLTDEELRAMIEEFDLDGDGEINENEFIAICTDS | no binding |
